Test results: PubChem BioAssay AID2685 (National Center for Advancing Translational Sciences (NCATS), 2010)
The list shows a part of the results. Further columns of the screen follow, without active or inactive calls. Compounds called inactive in the main read-out are mostly missing here. Potencies come from curve fits of mixed quality, noted in brackets. Where a SMILES comes first, the peptide text is derived from it. The star is where a group is joined. Boc = CC(C)(C)OC(=O)*

Assay: qHTS Assay for Lipid Storage Modulators in Drosophila S3 Cells;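 for cell number change: cells counted by Cell Tracker Red CMTPX staining in the red channel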
Settings: BODIPY lipid droplet fluorescence, 18-24 h; for cell number change: measured here: cell count max response, cells fed with added oleic acid
In short: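 Laser-scanning cytometry quantifies lipid droplet accumulation (500–530 nm total intensity; droplet/cell object ratio) in oleic acid-fed (400 uM added) Drosophila S3 cells treated with a concentration series. 20 uM Triacsin C defined 100% inhibition.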

[1] = measured here: cell number channel AC50, cells fed with added oleic acid
[2] = measured here: lipid fluorescence (Fed channel) AC50, cells fed with added oleic acid

SMILES	cell number change [%]	AC50 [1]	AC50 [2]
Cc1cc(C)n2nc(C(=O)OCC(=O)NCc3ccc(Cl)cc3)nc2n1	11.7	3660 nM [falling, single point]	3660 nM [falling, single point]
COC(=O)c1sccc1Oc1c(Cl)cccc1[N+](=O)[O-]	1.3	–	–
CC(=O)c1cc(NC(=O)c2ccc([N+](=O)[O-])cc2)c(=O)oc1C	-18.9	–	51.7 nM [falling, full curve]
O=C(NC1CCSC1)c1cccc(Cl)c1 (stereo not drawn)	23.7	–	–
N#Cc1ccc(-c2ccc(F)cc2)nc1Sc1ccccc1	-10.6	1030 nM [falling, full curve, poor fit]	731 nM [falling, full curve]
CCOC(=O)c1csc(NC(=O)CSc2nnnn2CC)n1	-15.4	130 nM [falling, full curve, poor fit]	25.9 nM [falling, full curve, poor fit]
COC(=O)CON1C(=O)c2ccccc2C1=O	–	–	5800 nM [falling, partial curve]
CCC(C)(C)C1CCc2[nH]nc(C(=O)N/N=C(\C)c3ccco3)c2C1 (stereo not drawn)	-36.9	14600 nM [falling, single point]	29100 nM [falling, single point]
O=C(CCNC(=O)c1ccc(Br)cc1)NCc1ccccn1	30.3	16400 nM [rising, single point]	–
CSc1cc(-c2ccccc2)n(C)c(=O)c1C#N	36.4	411 nM [rising, full curve, poor fit]	29100 nM [rising, partial curve, poor fit]
Cn1cc(S(=O)(=O)NC(c2ccccc2)c2ccccc2)c(=O)n(C)c1=O	3.94	–	2590 nM [falling, single point]
CN1/C(=N\O)c2cccc3cccc1c23	3.96	–	4610 nM [rising, single point]
CCc1ccc(CNC(=O)C2Cc3cc(S(=O)(=O)N4CCCC4)ccc3N2C(C)=O)cc1 (stereo not drawn)	–	–	18400 nM [falling, single point]
CCc1nc(N)nc2c1C(=O)CC(C)(C)C2	9.15	2590 nM [rising, partial curve, poor fit]	–
COc1cccc(NC(=O)Nn2cnnc2)c1	29.2	–	–
COc1ccc(CCC(=O)NNC(=O)c2cccs2)cc1	18.6	–	5170 nM [rising, full curve, poor fit]
O=C(NCCC(c1ccccc1)c1ccccc1)c1cccs1	10.9	146 nM [falling, full curve, poor fit]	116 nM [falling, full curve]
CCOc1ccc(-n2cc(C(=O)NCc3ccco3)c3cc(OC)c(OC)cc3c2=O)cc1	3.37	–	–

SMILES	cell number change [%]	AC50 [1]	AC50 [2]
CCOc1ccccc1OCC(=O)Nc1nc2ccccc2[nH]1	–	5800 nM [rising, single point]	–
CC1=N/C(=C\c2ccc(OC(C)C)cc2)C(=O)N1c1ccc(C(=O)O)cc1	15.3	1160 nM [rising, full curve]	651 nM [rising, full curve]
O=C(Nc1cccnc1)C1(c2ccc(Cl)cc2)CCCC1	38.7	6510 nM [rising, partial curve]	6510 nM [rising, single point]
Cn1cnc([N+](=O)[O-])c1Sc1n[nH]c(N)n1	6.09	–	–
CCC(C)C(NC(=O)OC(C)(C)C)C(=O)NC(CC(C)C)C(N)=O (stereo not drawn) (Boc-Ile-Leu-NH2; configuration not given here)	-149	29100 nM [falling, single point]	29100 nM [falling, single point]
COc1ccc(CC(=O)Nc2ccc(-c3cn4ccc(C)cc4n3)cc2)cc1	-0.516	–	–
C=CCn1c(SCC(=O)Nc2ccccc2C)nc2sc(C)c(C)c2c1=O	-40.6	2310 nM [rising, partial curve]	2310 nM [rising, partial curve]
COc1ccc(CSc2nnc3[nH]c(=O)cc(N)n23)cc1	-6.56	82 nM [falling, full curve, poor fit]	–
CCCCOc1ccc(-c2c(C(=O)Nc3ccccc3)c(C)[nH]c(=S)c2C#N)cc1	34.4	5170 nM [rising, single point]	–
Cc1ccc(SC[C@H](Cc2ccccc2)N2CC[C@@H](C)CCC2=O)cc1	9.88	116 nM [rising, full curve, poor fit]	–
O=C(NCc1ccc2c(c1)OCO2)c1cc2n(n1)C(C(F)(F)F)CC(c1ccc3c(c1)OCO3)N2 (stereo not drawn)	–	7310 nM [falling, single point]	–
Cc1cc(C)cc(OCC(=O)Nc2ccc(CN3CCCCC3)cc2)c1	42.3	4.61 nM [rising, full curve, poor fit]	29100 nM [rising, single point]
COc1ccc(CN2C(=O)C(Cc3ccccc3)Nc3ncnc(N4CCN(c5ccccc5)CC4)c32)cc1 (stereo not drawn)	-13.9	–	11600 nM [falling, single point]
Cc1nc(C)n(CC(C)C(=O)N2CCN(S(=O)(=O)c3ccc(Cl)cc3)CC2)n1 (stereo not drawn)	-23.7	51.7 nM [falling, full curve, poor fit]	–
Cc1nc2ccccc2nc(=O)c1NNc1ccc([N+](=O)[O-])cc1	9.86	–	411 nM [rising, partial curve, poor fit]
O=C(O)c1ccc2c(c1)C(=O)N([C@H](Cc1ccc(Cl)cc1)C(=O)O)C2=O	18.3	–	29100 nM [rising, single point]
CC1CCN(C(=O)CN2C(=O)c3ccccc3S2(=O)=O)CC1	10.4	–	259 nM [falling, full curve, poor fit]
COc1cccc(-c2c(-c3cc(OC)cc(OC)c3)n(C)c3ccc(-c4ccc5[nH]ccc5c4)cc23)c1	-8.67	–	651 nM [rising, single point]

Some of the entries above in another layout:
SMILES | cell number change [%] | AC50 [1] | AC50 [2]
Cc1ccc(SC[C@H](Cc2ccccc2)N2CC[C@@H](C)CCC2=O)cc1 | 9.88 | 116 nM [rising, full curve, poor fit] | –
O=C(NCc1ccc2c(c1)OCO2)c1cc2n(n1)C(C(F)(F)F)CC(c1ccc3c(c1)OCO3)N2 (stereo not drawn) | – | 7310 nM [falling, single point] | –
